According to EP1752538A1:
These are yes or no findings as the source states them, for the method shown. Binding calls can cover weak binding; strength is not graded here.

Tests used:
[1] = target: bovine pancreatic kallikrein (bovine); assay: affinity chromatography on kallikrein-Sepharose
[2] = target: bovine pancreatic kallikrein (bovine); assay: affinity chromatography on bovine pancreatic kallikrein-Sepharose

Binder	binding [1]	binding [2]
recombinant placental bikunin (1-170) from baculovirus / Sf9 cells (protein, asparagine 30 silent in sequencing, consistent with glycosylation) ADRERSIHDFCLVSKVVGRCRASMPRWWYNVTDGSCQLFVYGGCDGNSNNYLTKEECLKKCATVTENATGDLATSRNAADSSVPSAPRRQDSEDHSSDMFNYEEYCTANAVTGPCRASFPRWYFDVERNSCNNFIYGGCRGNKNSYRSEEACMLRCFRQQENPPLPLGSK	binds	
native human placental bikunin isolated from human placenta (protein, asparagine 30 silent in sequencing, likely glycosylated) ADRERSIHDFCLVSKVVGRCRASMPRWWYNVTDGSCQLFVYGGCDGNSNNYLTKEECLKKCATVTENATGDLATSRNAADSSVPSAPRRQDSEDHSSDMFNYEEYCTANAVTGPCRASFPRWYFDVERNSCNNFIYGGCRGNKNSYRSEEACMLRCFRQQENPPLPLGSKVVVLAGAVS		binds
